Results: publication PMC11730779
Positions count from the first letter of the chain named. Numbers in names are those of the source. No constants are given. Whether binding was seen depends on the method and setting. Binding seen in cells or lysates may run through a third protein. A result given as binding can be weak or reduced; the word gives no strength. Blank lines part the entries; values can stand above or below the binder they belong to.

Chains of the proteins cited; added tags and fusions are not shown. Lines headed by an entry give the natural chain unless they say otherwise; changes in a name come on top.
UniProt P11881: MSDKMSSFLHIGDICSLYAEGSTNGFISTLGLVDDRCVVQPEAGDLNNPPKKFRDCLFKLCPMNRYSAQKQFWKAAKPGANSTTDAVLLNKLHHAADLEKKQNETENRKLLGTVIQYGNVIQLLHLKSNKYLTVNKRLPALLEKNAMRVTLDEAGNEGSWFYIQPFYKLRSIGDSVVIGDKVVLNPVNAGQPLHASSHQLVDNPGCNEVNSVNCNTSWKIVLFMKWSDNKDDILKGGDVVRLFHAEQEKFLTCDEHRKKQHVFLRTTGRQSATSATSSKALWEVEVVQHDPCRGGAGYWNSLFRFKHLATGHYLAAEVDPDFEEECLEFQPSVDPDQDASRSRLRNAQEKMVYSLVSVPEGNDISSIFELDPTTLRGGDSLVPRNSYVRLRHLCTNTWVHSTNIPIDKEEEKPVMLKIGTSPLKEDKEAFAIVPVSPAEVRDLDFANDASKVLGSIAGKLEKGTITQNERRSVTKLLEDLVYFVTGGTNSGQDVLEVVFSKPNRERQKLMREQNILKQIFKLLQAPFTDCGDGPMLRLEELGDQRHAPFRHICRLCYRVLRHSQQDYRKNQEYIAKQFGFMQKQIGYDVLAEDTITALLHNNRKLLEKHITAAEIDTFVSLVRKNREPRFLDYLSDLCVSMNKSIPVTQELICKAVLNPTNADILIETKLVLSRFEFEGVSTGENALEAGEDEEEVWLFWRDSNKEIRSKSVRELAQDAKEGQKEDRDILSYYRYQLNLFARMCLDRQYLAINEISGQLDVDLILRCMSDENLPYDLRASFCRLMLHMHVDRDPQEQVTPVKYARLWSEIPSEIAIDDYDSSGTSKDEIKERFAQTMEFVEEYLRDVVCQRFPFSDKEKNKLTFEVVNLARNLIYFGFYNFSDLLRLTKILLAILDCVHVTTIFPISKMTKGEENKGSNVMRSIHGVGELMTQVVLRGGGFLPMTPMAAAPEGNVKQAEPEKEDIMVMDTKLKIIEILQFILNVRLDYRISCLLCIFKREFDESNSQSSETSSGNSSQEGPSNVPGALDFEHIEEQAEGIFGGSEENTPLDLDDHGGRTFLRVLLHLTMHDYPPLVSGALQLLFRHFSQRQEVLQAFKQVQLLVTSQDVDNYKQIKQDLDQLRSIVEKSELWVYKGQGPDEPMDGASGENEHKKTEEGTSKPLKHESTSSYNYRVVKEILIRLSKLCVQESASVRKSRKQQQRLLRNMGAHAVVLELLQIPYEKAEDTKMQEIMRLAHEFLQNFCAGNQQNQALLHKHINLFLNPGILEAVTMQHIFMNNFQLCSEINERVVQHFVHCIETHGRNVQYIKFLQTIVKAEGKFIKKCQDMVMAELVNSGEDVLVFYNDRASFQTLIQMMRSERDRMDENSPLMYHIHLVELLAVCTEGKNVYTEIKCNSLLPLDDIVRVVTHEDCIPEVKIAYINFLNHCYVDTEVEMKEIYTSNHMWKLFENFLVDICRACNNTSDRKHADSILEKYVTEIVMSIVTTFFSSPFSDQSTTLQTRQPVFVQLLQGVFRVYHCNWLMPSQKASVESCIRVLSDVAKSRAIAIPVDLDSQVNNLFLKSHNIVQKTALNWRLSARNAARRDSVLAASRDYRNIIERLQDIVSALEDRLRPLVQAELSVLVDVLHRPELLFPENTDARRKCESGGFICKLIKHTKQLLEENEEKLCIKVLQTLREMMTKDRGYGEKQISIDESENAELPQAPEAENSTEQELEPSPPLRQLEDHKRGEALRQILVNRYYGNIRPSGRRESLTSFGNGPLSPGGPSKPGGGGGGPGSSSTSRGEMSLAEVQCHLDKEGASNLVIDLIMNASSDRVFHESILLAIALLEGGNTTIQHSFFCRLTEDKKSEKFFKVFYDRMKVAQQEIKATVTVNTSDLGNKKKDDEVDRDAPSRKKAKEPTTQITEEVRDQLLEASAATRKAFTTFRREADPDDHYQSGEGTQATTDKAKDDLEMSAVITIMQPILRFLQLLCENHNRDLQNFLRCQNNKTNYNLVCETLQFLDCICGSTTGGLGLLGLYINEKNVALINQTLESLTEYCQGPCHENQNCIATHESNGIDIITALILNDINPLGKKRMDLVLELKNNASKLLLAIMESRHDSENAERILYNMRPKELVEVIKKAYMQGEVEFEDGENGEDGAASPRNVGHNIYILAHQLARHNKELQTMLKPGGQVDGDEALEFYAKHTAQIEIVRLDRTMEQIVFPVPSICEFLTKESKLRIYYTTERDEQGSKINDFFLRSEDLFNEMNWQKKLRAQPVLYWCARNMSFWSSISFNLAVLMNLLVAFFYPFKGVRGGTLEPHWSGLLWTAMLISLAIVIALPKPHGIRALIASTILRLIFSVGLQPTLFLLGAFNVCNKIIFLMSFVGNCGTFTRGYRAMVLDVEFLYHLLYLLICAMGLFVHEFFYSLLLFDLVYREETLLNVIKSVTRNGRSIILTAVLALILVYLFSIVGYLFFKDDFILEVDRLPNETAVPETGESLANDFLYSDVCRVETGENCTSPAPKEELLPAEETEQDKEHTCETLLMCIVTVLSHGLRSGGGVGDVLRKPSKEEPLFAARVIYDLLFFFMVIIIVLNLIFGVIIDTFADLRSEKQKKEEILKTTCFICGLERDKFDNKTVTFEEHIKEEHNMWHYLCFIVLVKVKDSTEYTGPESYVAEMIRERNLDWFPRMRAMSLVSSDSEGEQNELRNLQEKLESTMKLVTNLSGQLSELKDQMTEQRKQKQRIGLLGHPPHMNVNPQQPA

Target: IP3R1HA^WT (exogenous HA-tagged IP3R1) (UniProt P11881)
Experiment: co-IP; HEK-3KO cells transiently transfected with IP3R1HA^WT and Bok constructs; 1% CHAPS lysates; IP3R1HA IPs, immunoblot for Bok

binding: binds
B1: Bok^WT (exogenous wild-type Bok) (protein, UniProt Q9UMX3 1-212)
chain: MEVLRRSSVFAAEIMDAFDRSPTDKELVAQAKALGREYVHARLLRAGLSWSAPERAAPVPGRLAEVCAVLLRLGDELEMIRPSVYRNVARQLHISLQSEPVVTDAFLAVAGHIFSAGITWGKVVSLYAVAAGLAVDCVRQAQPAMVHALVDCLGEFVRKTLATWLRRRGGWTDVLKCVVSTDPGLRSHWLVAALCSFGRFLKAAFFVLLPER

binding: binds
B2: Bok^S8E (protein, UniProt Q9UMX3 1-212)
chain: B1 chain with S8E

binding: binds
B3: Bok^S8A (protein, UniProt Q9UMX3 1-212)
chain: B1 chain with S8A
